From patent publication US20030170173A1, “Contrast agents” (priority 2000, published 2003)

Test: Metabolic experiments/relaxometry: Gd-chelates incubated with homogenized liver, T1-relaxation time measured
Format: in vitro ADME, cattle
Conditions: 37° C.; for T1-relaxation time: Gd-chelate 2 mM in saline, 20 MHz; for Change of T1-relaxation time (contrast efficacy) with incubation time: 1, 10 or 50% liver homogenate, 0 to 60 h
[1] = 1% liver homogenate, incubation time 0 h
[2] = 1% liver homogenate, incubation time 1 h
[3] = 1% liver homogenate, incubation time 24 h
[4] = 1% liver homogenate, incubation time 36 h
[5] = 1% liver homogenate, incubation time 60 h
[6] = 10% liver homogenate, incubation time 0 h
[7] = 10% liver homogenate, incubation time 1 h
[8] = 10% liver homogenate, incubation time 24 h
[9] = 10% liver homogenate, incubation time 36 h
[10] = 10% liver homogenate, incubation time 60 h
[11] = 50% liver homogenate, incubation time 0 h
[12] = 50% liver homogenate, incubation time 1 h
[13] = 50% liver homogenate, incubation time 24 h
[14] = 50% liver homogenate, incubation time 36 h
[15] = 50% liver homogenate, incubation time 60 h

SMILES	T1-relaxation time [1] [ms]	T1-relaxation time [2] [ms]	T1-relaxation time [3] [ms]	T1-relaxation time [4] [ms]	T1-relaxation time [5] [ms]	Change of T1-relaxation time (contrast efficacy) with incubation time	T1-relaxation time [6] [ms]	T1-relaxation time [7] [ms]	T1-relaxation time [8] [ms]	T1-relaxation time [9] [ms]	T1-relaxation time [10] [ms]	T1-relaxation time [11] [ms]	T1-relaxation time [12] [ms]	T1-relaxation time [13] [ms]	T1-relaxation time [14] [ms]	T1-relaxation time [15] [ms]
O=C(O)CN1CCN(CC(=O)O)CCN(C(=O)NCc2ccccc2)CCN(CC(=O)O)CC1.[Gd] [Gd-chelate 4a, Gadolinium 1,4,7-tris(carboxymethyl)-10-(benzyl)carbamoyl-1,4,7,10-tetraazacyclododecane]	136	137	142	144	145	increased exponentially	125	132	175	182	184	129	132	158	165	175
Cc1ccc(NC(=O)N2CCN(CC(=O)O)CCN(CC(=O)O)CCN(CC(=O)O)CC2)cc1.[Gd] [Gd-chelate 4b, Gadolinium 1,4,7-tris(carboxymethyl)-10-(p-tolyl)carbamoyl-1,4,7,10-tetraazacyclododecane]	128	130	134	135	137	increased exponentially	103	108	165	157	179	120	125	193	200	215
